{"source": "paper PMC7504215", "about": "“Copper(II) Complexes with Mixed Heterocycle Ligands as Promising Antibacterial and Antitumor Species” (Molecules, 2020)", "test_system": "B16 (melanoma) tumor cells", "test": "MTT cell viability assay", "assay_type": "cell-based, Mouse", "conditions": "for TI (therapeutic index) 48 h: ratio IC50 BJ / IC50 B16, 48 h, where no toxic effect, two times the highest tested concentration used", "protocol": "The cytotoxicity of ligand and copper(II) complexes was tested on normal BJ cell as well as on B16 (melanoma) tumor cells, which were grown for 48 h in culture medium containing the tested complexes in 0–25 μg/mL concentration range.\nHuman fibroblast cells (BJ-ATCC CRL-2522, Manassas, VA, USA) were grown in minimal essential medium (MEM) supplemented with 2 mM L-Glutamine, 10% fetal calf serum (FCS), 100 units/mL of penicillin and 100 µg/mL of streptomycin at 37 °C in a humidified incubator under an atmosphere containing 5% CO2. Mouse melanoma cells (B16-ATCC CRL-6475, Manassas, VA, USA) were grown in DMEM (Dulbecco’s Modified Eagle Medium) supplemented with similar reagents as MEM. All cell cultivation media and reagents were purchased from Biochrom AG (Berlin, Germany) and Sigma-Aldrich (Darmstadt, Germany).\nCell viability was evaluated using 3-(4,5-dimethylthiazol-2-yl)-2,5-diphenyltetrazolium bromide (MTT) assay, as described previously. First, the cells were seeded in 96-well plates (20,000 cells/well) and cultured for 24 h in medium. After overnight incubation, the medium was changed and the investigated sample in concentration varying from […] was added for 24 h. The negative control was represented by cells cultivated in medium without the investigated compounds. Following incubation, the medium was changed and the MTT solution was added to each well to a final concentration of 1 mg/mL and incubated for additional 4 h, at 37 °C. Finally, the medium was collected and DMSO was used to dissolve the insoluble formazan product. The absorbance of the samples was recorded at 570 nm using a plate reader Mithras 940 (Berthold). The data were corrected for the background and the percentage of viable cells was obtained using the equation:Cell viability = [(A570 of treated cells)/(A570 of untreated cells)] × 100%\nThe half-maximal inhibitory concentration (IC50) was determined by fitting the data with a logistical sigmoidal equation using the software Origin 8.1 from Microcal Inc. (Los Angeles, CA, USA)."}
{"smiles": "Cc1cc(-c2ccccc2)nc2ncnn12.[Cu+2].[O-][Cl+3]([O-])([O-])[O-].[O-][Cl+3]([O-])([O-])[O-].c1cnc2c(c1)ccc1cccnc12.c1cnc2c(c1)ccc1cccnc12", "note": "[(2), [Cu(phen)2(pmtp)](ClO4)2]", "values": [{"measurement": "TI (therapeutic index) 24 h", "setting": "ratio IC50 BJ / IC50 B16, 24 h", "result": 0.95}, {"measurement": "TI (therapeutic index) 48 h", "result": 0.88}]}
{"smiles": "Cc1cc(-c2ccccc2)nc2ncnn12.[Cu+2].[O-][Cl+3]([O-])([O-])[O-].[O-][Cl+3]([O-])([O-])[O-].c1ccc(-c2ccccn2)nc1.c1ccc(-c2ccccn2)nc1", "note": "[(1), [Cu(bpy)2(pmtp)](ClO4)2]", "values": [{"measurement": "TI (therapeutic index) 48 h", "result": 3.23}]}
